PubChem BioAssay AID1259405 | NCATS – 2018
The whole screen tested about 50,000 reagents; below is a random part of them. About 4,000 of them (8%) were called active. 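Mouse siRNA library applied to hamster cells; one well for each siRNA.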 The numbers tell different reagents against one gene apart. Reagent sequences are not shown.

Purpose: 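Silenced genes that increase secreted GFP made by CHO cells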 (primary screen)
System: Chinese hamster CHO-K1 ovary cells with stable secreted eGFP expression
Reagent: single siRNA against mouse genes, 0.8 pmol siRNA per well (2 µl of 400 nM stock)
Timing: 3 days
Measured: 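Percent of the per-plate non-targeting control median for intracellular GFP per well by laser scanning cytometry and for cell viability by ATP luminescence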
Reading the numbers: GFP, % of control: higher = more GFP per well, higher productivity; viability (ATP), % of control: higher = more viable cells (more ATP)
Active means: 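a knock-down is called active if GFP reaches 120% or more of non-targeting control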

Gene	siRNA no.	GFP, % of control	viability (ATP), % of control	outcome
Pbk	1	63.2	75.1	inactive
Ttc33	1	86.9	101	inactive
Ttc33	2	71.5	97	inactive
Armcx5	1	71.4	62.3	inactive
Armcx5	2	96.1	81.1	inactive
Armcx5	3	61.9	73.9	inactive
Snrpb	1	65.4	105	inactive
Snrpb	2	78.5	82.5	inactive
Snrpb	3	67.6	42.8	inactive
Dagla	1	77.5	60.8	inactive
Dagla	2	139	64	active
Dagla	3	57.4	61.4	inactive
Nmb	1	57.7	47.8	inactive
Nmb	2	81.3	85.1	inactive
Nmb	3	75.1	46.3	inactive
Lancl3	1	34.9	52	inactive
Lancl3	2	54.1	83.8	inactive
Lancl3	3	87.4	107	inactive
Rab14	1	103	94.2	inactive
Rab14	2	95.2	91.4	inactive
Rab14	3	45.4	90.4	inactive
Selenok	1	93.2	60.5	inactive
Selenok	2	111	80.3	inactive
Selenok	3	58.4	67.3	inactive
Wls	1	57.7	67.2	inactive
Wls	2	99.5	93.1	inactive
Wls	3	115	116	inactive
Magea7-ps	1	38.2	31.6	inactive
Magea7-ps	2	54.3	37.7	inactive
Magea7-ps	3	98.7	79.5	inactive
Akr1b10	1	67.5	33	inactive
Akr1b10	2	66.3	59.9	inactive
Akr1b10	3	36.7	55.1	inactive
Vwa5a	1	50.9	76.6	inactive
Vwa5a	2	136	101	active
Neurod6	1	111	111	inactive
Neurod6	2	106	77.8	inactive
Neurod6	3	73.1	90.4	inactive
H1f9	1	59.3	67.2	inactive
H1f9	2	51.4	39.5	inactive
H1f9	3	147	88.4	active
Vmn1r76	1	122	77.7	active
Vmn1r76	2	83.9	93.6	inactive
Vmn1r76	3	57.2	58.5	inactive
Tmem86b	1	42.6	48.4	inactive
Tmem86b	2	144	108	active
Napb	1	57.5	65.4	inactive
Napb	2	67	36.6	inactive
Napb	3	67.3	42.4	inactive
Tmod4	1	88	73.8	inactive
Tmod4	2	68	65.9	inactive
Tmod4	3	35.8	47.3	inactive
Map2k7	1	80	95.9	inactive
Klhl26	1	68.8	80.9	inactive
Klhl26	2	73.4	69.6	inactive
Klhl26	3	107	87.6	inactive
Nkx2-6	1	51.1	50.6	inactive
Nkx2-6	2	70.7	88.1	inactive
Pianp	1	100	97.1	inactive
Pianp	2	87.5	85.2	inactive
Pianp	3	85.1	86.5	inactive
Olfr242	1	59.2	56	inactive
Olfr242	2	63.5	67.9	inactive
Olfr242	3	52.6	76.1	inactive
4933434M16Rik	1	90.6	81.2	inactive
4933434M16Rik	2	62.5	71.6	inactive
4933434M16Rik	3	65.4	53.9	inactive
Tas2r110	1	79.7	85.1	inactive
Tas2r110	2	92.6	102	inactive
Tas2r110	3	110	128	inactive
Pdcd6ip	1	129	100	active
Pdcd6ip	2	80.4	74.6	inactive
Pdcd6ip	3	67.1	71	inactive
Bco2	1	72.1	138	inactive
Bco2	2	114	64.2	inactive
Bco2	3	89.1	77.6	inactive
Adam32	1	56.1	79	inactive
Adam32	2	59.6	74.8	inactive
Adam32	3	77.9	78.9	inactive
Dcun1d1	1	96.1	81	inactive
Dcun1d1	2	71.2	112	inactive
Dcun1d1	3	107	149	inactive
Pde10a	1	54	55	inactive
Pde10a	2	53.4	56	inactive
Pde10a	3	105	77.5	inactive
